Measured data: PubChem BioAssay AID1259254 (NCATS, 2017)
The deposit covers about 59,000 reagents; shown is a part drawn at random. About 1,550 of them (2.6%) were called active. 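G2 share is only a proxy for re-replication; each gene was hit by three separate siRNAs, and active genes were retested.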 A number with no mark means an inactive call. The numbers tell different reagents against one gene apart. Further read-outs or replicates are left out here. The record does not give: the amount of reagent.

Test: 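Finding genes that stop cells copying their DNA twice in one cycle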 (primary screen)
Cell system: human HCT116 colorectal cancer cells
Reagents: single siRNA against human genes
Time to read-out: 3 days
Read-out: 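Nuclei stained with Hoechst and imaged; cell-cycle phase assigned by DNA content; G2 share scaled per plate, non-targeting siRNA 0%, GMNN siRNA 100%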
Direction: G2 robust z-score: higher = more G2 cells, more excess DNA replication
Rule for the call: 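Active siRNAs have a G2 robust z of 5 or more median absolute deviations over the median, which in these data means about 38% or higher of GMNN control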

AKAP6 #1 showed G2 robust z-score -0.342. Knock-down of AKAP6 #2 gave: G2 robust z-score 4.42. Depletion of AKAP6 #3 came out at: G2 robust z-score -0.324. After knock-down of KAT8 #1, the record shows G2 robust z-score -0.784. With knock-down of KAT8 #2 the results were G2 robust z-score -0.957. KAT8 #3 scored G2 robust z-score -0.572.

Silencing of ZNRD2 #1 gave: G2 robust z-score -0.0815. Against ZNRD2 #2, the entry reads G2 robust z-score -0.364. Knock-down of ZNRD2 #3 came out at: G2 robust z-score 0.298. For MYPN #1, the values are G2 robust z-score -1.01. After knock-down of MYPN #2, the screen gave G2 robust z-score 3.15. MYPN #3 gave G2 robust z-score -0.534.
